Data: the supplement of paper PMC4604168 (melanoma cell lines)
The other results are listed elsewhere or left out. Single values are uncertain, as repeats are few or missing.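 The apoptosis fraction was the count of cleaved-PARP antibody-stained nuclei relative to all DNA-stained nuclei, imaged in 1,536-well plates. Screening doses were set so most cells survived, and baseline and induced cleaved-PARP levels vary greatly across cell lines.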

Legend:
Assay in all cases: cleaved PARP positive nuclei fraction relative to DMSO control; melanoma cells; higher = more apoptosis
Conditions in all cases: library dose: low library concentration; 72 h
[1] = system: 501Mel
[2] = system: A101D
[3] = system: A2058
[4] = system: C32
[5] = system: CBRC008 (line from a melanoma biopsy)
[6] = system: CBRC014 (line from a melanoma biopsy)
[7] = system: CBRC016 (line from a melanoma biopsy)
[8] = system: CBRC017 (line from a melanoma biopsy)
[9] = system: COLO792
[10] = system: COLO800
[11] = system: COLO829
[12] = system: G361
[13] = system: IPC-298
[14] = system: IST-MEL1
[15] = system: LB2518-MEL
[16] = system: LOXIMVI

Compound	cleaved PARP positive nuclei fraction [1] [%]	cleaved PARP positive nuclei fraction [2] [%]	cleaved PARP positive nuclei fraction [3] [%]	cleaved PARP positive nuclei fraction [4] [%]	cleaved PARP positive nuclei fraction [5] [%]	cleaved PARP positive nuclei fraction [6] [%]	cleaved PARP positive nuclei fraction [7] [%]	cleaved PARP positive nuclei fraction [8] [%]	cleaved PARP positive nuclei fraction [9] [%]	cleaved PARP positive nuclei fraction [10] [%]	cleaved PARP positive nuclei fraction [11] [%]	cleaved PARP positive nuclei fraction [12] [%]	cleaved PARP positive nuclei fraction [13] [%]	cleaved PARP positive nuclei fraction [14] [%]	cleaved PARP positive nuclei fraction [15] [%]	cleaved PARP positive nuclei fraction [16] [%]
C[C@@H](Oc1cc(-c2cnn(C3CCNCC3)c2)cnc1N)c1c(Cl)ccc(F)c1Cl [Crizotinib] + Oc1nc(-c2ccc(C(F)(F)F)cc2)nc2c1CSCC2 [XAV939] (first compound 0.2 µM, partner dose 2 µM)	125	17.1	73.7	116	31.2	86.5	50.9	105	62.4	108	119	146	91.4	64.3	35.2	119
CNC(=O)c1cc(Oc2ccc(NC(=O)Nc3ccc(Cl)c(C(F)(F)F)c3)cc2)ccn1 [sorafenib] + CCCCCCCCCCCC1=C(O)C(=O)C=C(O)C1=O [Embelin] (first compound 0.4 µM, partner dose 1.2 µM)	64.4	12.6	83.1	141	80.3	79.8	112	92.4	90.9	130	35.4	78.9	45.3	113	102	61.3
Cn1c(=O)n(-c2ccc(C(C)(C)C#N)cc2)c2c3cc(-c4cnc5ccccc5c4)ccc3ncc21 + COC(=O)c1sccc1S(=O)(=O)Nc1ccc(Nc2ccccc2)cc1OC [GSK0660] (first compound 0.004 µM, partner dose 1 µM)	73.5	21.1	43.3	144	46.6	101	58.3	102	137	134	267	124	384	81.1	61.6	39
CO[C@H]1C[C@@H]2CC[C@@H](C)[C@@](O)(O2)C(=O)C(=O)N2CCCC[C@H]2C(=O)O[C@H]([C@H](C)C[C@@H]2CC[C@@H](OCCO)[C@H](OC)C2)CC(=O)[C@H](C)/C=C(\C)[C@@H](O)[C@@H](OC)C(=O)[C@H](C)C[C@H](C)/C=C/C=C/C=C/1C [everolimus] + CCN(CC)CCCCNc1ncc2cc(-c3cc(OC)cc(OC)c3)c(NC(=O)NC(C)(C)C)nc2n1 [PD173074] (first compound 0.02 µM, partner dose 0.1 µM)	111	1060	153	91.1	179	91.8	47.4	111	158	88.7	138	137	179	125	78.1	182
CN1CCN(c2ccc3nc(-c4c(N)c5c(F)cccc5[nH]c4=O)[nH]c3c2)CC1 [Dovitinib] + O=C(Nc1ccccc1)c1cc([N+](=O)[O-])ccc1Cl [GW9662] (first compound 0.1 µM, partner dose 2 µM)	89.7	15.5	227	124	41.6	98.4	35.6	72.6	12.8	202	276	104	93.1	89.1	57	188
CS(=O)(=O)CCNCc1ccc(-c2ccc3ncnc(Nc4ccc(OCc5cccc(F)c5)c(Cl)c4)c3c2)o1 [lapatinib] + COC(=O)c1sccc1S(=O)(=O)Nc1ccc(Nc2ccccc2)cc1OC [GSK0660] (first compound 0.8 µM, partner dose 1 µM)	67.8	30.6	57.4	100	158	118	44.3	181	192	36.8	47.3	25	61.4	126	69.3	114
O=C(O)c1ccc2c(c1)nc(Nc1cccc(Cl)c1)c1ccncc12 + COc1cc2ncnc(Nc3ccc(Oc4ccccc4)cc3)c2cc1OC [SrcI1] (first compound 0.4 µM, partner dose 2 µM)	175	439	40.1	153	87.7	117	30.4	319	51.9	18.5	139	124	35	109	59.4	150
CO[C@H]1C[C@@H]2CC[C@@H](C)[C@@](O)(O2)C(=O)C(=O)N2CCCC[C@H]2C(=O)O[C@H]([C@H](C)C[C@@H]2CC[C@@H](OCCO)[C@H](OC)C2)CC(=O)[C@H](C)/C=C(\C)[C@@H](O)[C@@H](OC)C(=O)[C@H](C)C[C@H](C)/C=C/C=C/C=C/1C [everolimus] + Oc1cc(-c2nc(-c3ccccc3)[nH]c2-c2ccncc2)ccc1Cl [L779450] (first compound 0.02 µM, partner dose 0.2 µM)	124	15.1	145	93.9	187	92.8	89.6	81.3	115	88.8	73	82.9	219	80	108	57.2
O=C(O)c1ccc2c(c1)nc(Nc1cccc(Cl)c1)c1ccncc12 + O=C(O)C(=O)Nc1sc2c(c1C(=O)O)CCNC2 [TCS401] (first compound 0.4 µM, partner dose 1.66667 µM)	57.7	18.9	84.5	132	99.5	103	134	132	222	69.3	149	134	98.7	78.2	28.7	295
C[C@@H](Oc1cc(-c2cnn(C3CCNCC3)c2)cnc1N)c1c(Cl)ccc(F)c1Cl [Crizotinib] + COc1cc2ncnc(Nc3ccc(Oc4ccccc4)cc3)c2cc1OC [SrcI1] (first compound 0.2 µM, partner dose 2 µM)	57.3	28.8	128	124	34	87.8	48.1	63.7	101	104	99.5	99.5	53.1	179	57.8	69.2
CCCS(=O)(=O)Nc1ccc(F)c(C(=O)c2c[nH]c3ncc(Cl)cc23)c1F + O=S(=O)(c1ccccc1)N(CC(F)(F)F)c1ccc(C(O)(C(F)(F)F)C(F)(F)F)cc1 [T0901317] (first compound 0.08 µM, partner dose 1.4 µM)	45.8	25.8	38.4	48	182	153	84.8	103	62.2	142	82.9	86.5	50.2	98.6	61.5	54.2
CC(C)C[C@H](NC(=O)[C@H](Cc1ccccc1)NC(=O)c1cnccn1)B(O)O [Bortezomib] + COc1ccc(-c2ccc3c(N4CCOCC4)nc(N4C[C@@H](C)O[C@@H](C)C4)nc3n2)cc1CO [KU0063794] (first compound 0.001 µM, partner dose 0.02 µM)	509	94.7	154	58.2	670	215	454	372	42.1	49.9	376	2360	41.1	74.9	601	167
CNC(=O)c1cc(Oc2ccc(NC(=O)Nc3ccc(Cl)c(C(F)(F)F)c3)cc2)ccn1 [sorafenib] + c1cc(-c2cnn3cc(-c4ccc(OCCN5CCCCC5)cc4)cnc23)ccn1 [Dorsomorphin] (first compound 0.4 µM, partner dose 0.4 µM)	88.6	18.8	78.2	45.5	37	104	39.2	157	69.7	31.6	63.8	48	46.9	236	68.8	266
Nc1ccn([C@@H]2O[C@H](CO)[C@@H](O)C2(F)F)c(=O)n1 [gemcitabine] + Oc1cc(-c2nc(-c3ccccc3)[nH]c2-c2ccncc2)ccc1Cl [L779450] (first compound 0.0004 µM, partner dose 0.2 µM)	108	44.3	124	80.5	74	134	72.1	140	126	98.6	115	150	103	166	91.8	111
Nc1ncn([C@H]2C[C@H](O)[C@@H](CO)O2)c(=O)n1 [decitabine] + N#Cc1c(O)c2c(-c3ccc(-c4ccccc4O)cc3)csc2[nH]c1=O [A769662] (first compound 0.1 µM, partner dose 2 µM)	66.5	68.1	161	69.5	70.9	548	71.2	134	119	97.9	305	247	195	145	87	86.9
CNC(=O)c1cc(Oc2ccc(NC(=O)Nc3ccc(Cl)c(C(F)(F)F)c3)cc2)ccn1 [sorafenib] + CCc1ccc(CCOc2ccc(CC3SC(=O)NC3=O)cc2)nc1 [pioglitazone] (first compound 0.4 µM, partner dose 2 µM)	110	13.9	88.9	104	120	88.7	66.9	93.1	124	90.4	94.6	202	62.2	69.4	93.9	71.9
CC(C)C[C@H](NC(=O)[C@H](Cc1ccccc1)NC(=O)c1cnccn1)B(O)O [Bortezomib] + Oc1cc(-c2nc(-c3ccccc3)[nH]c2-c2ccncc2)ccc1Cl [L779450] (first compound 0.001 µM, partner dose 0.2 µM)	155	29.8	149	40.5	419	261	133	148	100	87.3	212	1450	153	225	314	73.4
